Data taken from doi:10.1101/2025.08.22.671707.
Results are given in words; binding and its absence hold for the method and conditions named. In cells and extracts the contact can be indirect. Some binding calls cover weakened binding; strength is not graded here. For some assays here: Sequences can lack the tags named with a protein. Blank lines part the entries; values can stand above or below the molecule they belong to.

Sequences of proteins named here, by UniProt entry; tags and fusion partners are left off. A change or cut given only in a name is not applied to a line headed by its entry.
UniProt Q01968: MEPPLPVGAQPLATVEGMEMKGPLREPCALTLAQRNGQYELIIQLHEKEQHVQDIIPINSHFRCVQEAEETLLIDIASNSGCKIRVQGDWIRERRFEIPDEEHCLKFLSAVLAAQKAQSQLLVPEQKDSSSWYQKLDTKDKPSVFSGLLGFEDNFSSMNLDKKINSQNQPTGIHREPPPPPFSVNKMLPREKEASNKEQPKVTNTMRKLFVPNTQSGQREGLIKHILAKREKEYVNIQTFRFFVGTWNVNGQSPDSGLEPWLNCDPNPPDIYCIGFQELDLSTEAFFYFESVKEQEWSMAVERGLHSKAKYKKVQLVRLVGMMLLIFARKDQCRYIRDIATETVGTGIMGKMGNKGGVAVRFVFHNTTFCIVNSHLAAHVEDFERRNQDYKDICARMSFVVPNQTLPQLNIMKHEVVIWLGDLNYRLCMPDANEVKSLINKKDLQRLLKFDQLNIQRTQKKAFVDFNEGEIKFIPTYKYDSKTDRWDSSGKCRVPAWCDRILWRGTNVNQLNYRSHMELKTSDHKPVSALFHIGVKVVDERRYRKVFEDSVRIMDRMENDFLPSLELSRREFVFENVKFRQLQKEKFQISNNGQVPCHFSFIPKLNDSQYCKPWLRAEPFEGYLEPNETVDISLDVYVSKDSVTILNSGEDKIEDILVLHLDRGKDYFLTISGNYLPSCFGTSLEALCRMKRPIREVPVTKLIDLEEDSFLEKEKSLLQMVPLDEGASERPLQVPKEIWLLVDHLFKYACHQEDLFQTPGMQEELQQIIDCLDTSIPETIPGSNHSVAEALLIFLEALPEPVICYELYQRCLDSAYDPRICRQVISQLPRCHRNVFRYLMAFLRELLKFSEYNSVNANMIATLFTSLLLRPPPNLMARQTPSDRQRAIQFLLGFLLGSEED
UniProt P61006: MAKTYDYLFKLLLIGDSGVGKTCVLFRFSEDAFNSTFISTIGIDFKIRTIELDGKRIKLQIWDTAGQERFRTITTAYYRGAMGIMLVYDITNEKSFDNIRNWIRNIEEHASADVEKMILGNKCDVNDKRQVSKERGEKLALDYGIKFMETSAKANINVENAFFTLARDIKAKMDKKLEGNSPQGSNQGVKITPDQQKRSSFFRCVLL
UniProt P55258: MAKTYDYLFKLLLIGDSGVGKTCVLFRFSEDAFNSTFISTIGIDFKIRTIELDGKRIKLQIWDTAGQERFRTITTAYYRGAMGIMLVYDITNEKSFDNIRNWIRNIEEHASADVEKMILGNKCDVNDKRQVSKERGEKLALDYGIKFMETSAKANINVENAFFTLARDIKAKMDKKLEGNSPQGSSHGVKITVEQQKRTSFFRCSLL

Tests used:
[1] = molecular target: GST-OCRL (UniProt Q01968); experiment: pull-down
[2] = molecular target: T1, C9orf72-GFP (UniProt Q96LT7); experiment: co-IP
T1 sequence: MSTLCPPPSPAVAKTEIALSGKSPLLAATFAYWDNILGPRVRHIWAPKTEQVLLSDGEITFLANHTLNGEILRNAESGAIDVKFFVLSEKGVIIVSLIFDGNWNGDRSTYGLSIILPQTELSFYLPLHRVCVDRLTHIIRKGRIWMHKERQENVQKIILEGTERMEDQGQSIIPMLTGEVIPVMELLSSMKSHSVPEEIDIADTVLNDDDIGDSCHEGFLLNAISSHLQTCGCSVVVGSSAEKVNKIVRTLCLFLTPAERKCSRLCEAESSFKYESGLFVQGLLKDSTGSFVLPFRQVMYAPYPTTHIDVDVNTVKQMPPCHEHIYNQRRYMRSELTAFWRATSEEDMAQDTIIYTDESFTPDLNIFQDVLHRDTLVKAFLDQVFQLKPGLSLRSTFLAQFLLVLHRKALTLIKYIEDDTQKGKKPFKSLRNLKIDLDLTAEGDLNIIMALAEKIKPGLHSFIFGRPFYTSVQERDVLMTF

[3] = molecular target: T2, SMCR8-GFP (UniProt Q8TEV9); experiment: co-IP
T2 sequence: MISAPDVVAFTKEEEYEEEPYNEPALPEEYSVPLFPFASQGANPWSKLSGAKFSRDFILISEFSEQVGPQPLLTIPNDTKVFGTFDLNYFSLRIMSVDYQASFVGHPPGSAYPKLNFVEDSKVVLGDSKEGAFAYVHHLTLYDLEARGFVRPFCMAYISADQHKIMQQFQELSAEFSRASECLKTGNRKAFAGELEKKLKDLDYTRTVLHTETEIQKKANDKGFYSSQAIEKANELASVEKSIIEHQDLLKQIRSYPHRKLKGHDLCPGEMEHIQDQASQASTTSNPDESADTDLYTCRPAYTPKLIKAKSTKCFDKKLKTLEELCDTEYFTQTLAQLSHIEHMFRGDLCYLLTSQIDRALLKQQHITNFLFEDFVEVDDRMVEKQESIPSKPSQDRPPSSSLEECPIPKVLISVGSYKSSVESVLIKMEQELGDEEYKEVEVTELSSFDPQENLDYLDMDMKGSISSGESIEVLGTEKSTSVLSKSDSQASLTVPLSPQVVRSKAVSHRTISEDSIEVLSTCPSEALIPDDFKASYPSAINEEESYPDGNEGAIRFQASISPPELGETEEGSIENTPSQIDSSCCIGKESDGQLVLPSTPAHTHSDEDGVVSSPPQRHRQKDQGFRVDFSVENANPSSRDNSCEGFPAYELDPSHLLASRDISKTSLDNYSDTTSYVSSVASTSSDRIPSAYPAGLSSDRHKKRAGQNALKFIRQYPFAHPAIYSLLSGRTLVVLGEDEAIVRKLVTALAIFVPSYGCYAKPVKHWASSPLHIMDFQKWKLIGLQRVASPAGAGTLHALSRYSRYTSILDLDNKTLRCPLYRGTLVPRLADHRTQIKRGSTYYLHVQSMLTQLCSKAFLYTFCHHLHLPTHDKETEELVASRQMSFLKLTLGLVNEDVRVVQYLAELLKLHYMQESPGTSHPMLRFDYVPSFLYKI

[4] = molecular target: GFP-tagged RAB8A Q67L (GTP-bound) (UniProt P61006); experiment: co-IP

binding [1]: binds
Molecule: RAB8A (GTP-bound form), endogenous in BV2 cells (from UniProt P55258 1-207)

binding [2]: binds | binding [3]: binds
Molecule: pT72-RAB8A (from UniProt P55258 1-207)

binding [4]: binds
B1: C9orf72 (of the C9orf72/SMCR8 complex, in HEK293T cells) (protein, UniProt Q96LT7 1-481)
chain: T1 sequence

binding [4]: binds
B2: SMCR8 (of the C9orf72/SMCR8 complex, in HEK293T cells) (protein, UniProt Q8TEV9 1-937)
chain: T2 sequence
